Data as given in PubChem BioAssay AID1259331 (Drosophila RNAi Screening Center, 2017).

Assay: 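Genes whose knock-down changes cell survival under toxic zinc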 (primary screen)
Cell system: Drosophila S2R+ cells
Reagents: long dsRNA against Drosophila genes
Duration: 5 days (4 days knock-down, then 1 day zinc)
Conditions: zinc chloride at 15 mM final level for 1 day
Read-out: 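Luminescent ATP assay standing in for viability; Z score is the mean over three replicate plates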
Scale: mean Z score: higher = more ATP than other wells, better survival under zinc; ATP luminescence: higher = more ATP, more viable cells
Call rule: 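a reagent is called a hit when its Z score is above 1.5 or below -1.5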
Meaning of the calls: active = hit, ATP up or down; inactive = not a hit
Here is a random part of about 3,100 reagents tested. 126 of them (4.1%) were called active. 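Calls are per reagent; zinc was so toxic that few knock-downs lowered ATP further, so most hits raise ATP.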 Raw values vary from plate to plate and are shown uncorrected. Entries without a mark were called inactive. Reagent sequences are not shown. Not given: the amount of reagent.

no.	gene	DRSC id	mean Z score	ATP luminescence, replicate 1	ATP luminescence, replicate 2
1	xit (xiantuan)	DRSC18364	-0.387	42106	39730
2	xit (xiantuan)	DRSC39724	-0.274	54407	55436
3	Msp300 (Muscle-specific protein 300 kDa)	DRSC00856	-0.0986	39079	43897
4	Msp300 (Muscle-specific protein 300 kDa)	DRSC00858	-0.0953	44497	40911
5	Msp300 (Muscle-specific protein 300 kDa)	DRSC03369	-0.298	50292	53841
6	Msp300 (Muscle-specific protein 300 kDa)	DRSC03370	0.347	53807	35805
7	CG1572	DRSC19686	0.00952	47137	46554
8	CG6696	DRSC20004	0.884	49212	60392
9	CG6696	DRSC25648	0.171	58231	57682
10	Calx (Na/Ca-exchange protein)	DRSC13457	-0.25	38513	53704
11	Calx (Na/Ca-exchange protein)	DRSC16599	-0.00631	95160	55910
12	Calx (Na/Ca-exchange protein)	DRSC21850	-0.715	34673	47737
13	Calx (Na/Ca-exchange protein)	DRSC24386	-0.238	56464	55436
14	CG13907	DRSC08377	-0.625	26908	26068
15	CG13907	DRSC25983	-0.181	58180	57700
16	ifc (infertile crescent)	DRSC03549	-0.513	48869	49092
17	ifc (infertile crescent)	DRSC39666	-0.58	49692	51355
18	CG9416	DRSC07339	-0.134	68208	67221
19	pain (painless)	DRSC04273	-0.00879	51371	39647
20	pain (painless)	DRSC28351	0.792	72654	74575
21	mah (mahogany)	DRSC14645	-0.468	36867	51629
22	mah (mahogany)	DRSC28300	-0.11	58540	60872
23	Ir75c (Ionotropic receptor 75c)	DRSC10190	-0.115	44565	38376
24	Or85b (Odorant receptor 85b)	DRSC16765	-0.631	33079	46674
25	Or85b (Odorant receptor 85b)	DRSC39611	-0.266	53241	57099
26	Amt (Ammonium transporter)	DRSC16055	0.222	37742	61141
27	Amt (Ammonium transporter)	DRSC27970	0.145	62913	57888
28	Stt3B	DRSC16781	0.491	39165	62415
29	Stt3B	DRSC39644	-0.259	61369	55813

Individual results from the list.
Entry for CG6696 [DRSC20004] under “ATP luminescence, replicate 1”: 49212
For “ATP luminescence, replicate 1”, Stt3B [DRSC16781] reads 39165
